This experiment has as its target Ras GTPase-activating protein binding protein 1 (G3BP1) (African green monkey (endogenous in MA104)). The experiment is described as follows: affinity purification with mass spectrometry; whole-cell lysates of mock-infected or SHFV-infected (MOI 0.1, 24 h) MA104 cells in IP lysis buffer (25 mM Tris-HCl pH 7.4, 150 mM NaCl, 1 mM EDTA, 1% NP-40, 5% glycerol); rabbit anti-G3BP1 antibody, Protein A magnetic beads, overnight at 4°C; LC-MS/MS, enrichment compared between mock and infected.

These are yes or no findings as the source states them, for the method shown. Binding seen in cells or lysates may run through a third protein. A yes stands for co-enrichment or nearness to the bait. Other partners may have been found.

B1: SHFV nsp2 (made in infected cells) (protein, UniProt Q68772 351-1236)
chain: GNASSVSWPEWKYDEQLLYADSLTAGFCWLQLFPPLSRKSEAQRAILAQQVNNYGVTGTYLEYRLRQYGIVLAECDYGEHYIYAAASDSSIRHISPVPIHDRHHVFVTRLTARFGAFDEGFDLGFGTRYGRRRGGGKKSGQSSGVRAPGRTTPDLAGDWGKAVDDQEKTASKVTTDKAMSTSEPAVVQVGCETKPVADAAAVPASVNSTGCALLPVQADPCCTAGVAAKESEPKAVAAPSIPITFGAPAGETLPVAASPLVVKKDKRCISVKLTAKKALPKETFIPPPDGGCGVHAFAAIQYHINTGHWPEQKPVVNWAYEAWTTNEDIGHMICSTETPAALEPCLHARYVVRLDSDHWVVDHYPNRPMCFVEACAHGWCSSLLSEPTGEEGEHLVDCSALYDCLGKFRNGTEFADTVLGLSKTAHCCNKRVPTPRKQAIMSLLNRPNCVPCIAPPSQVRTVDPSQPAAPLPPVPRPRKRKAAAQQVSKVPSEQDPSLAHDPPEKPDSVRPPKLGYLDRAWNNMLARTHKLHNLQQRVFGLYPQLLSMLLPSGARPSTPRLLGCYFSMAVAMFFLFLGSPLFILCAVLAGVIAPSARYPKILCCCLVVVYICTLFADAISSVCDNDDADCRAFLSDLGDRYSTNQPVYITPGPATFFLAVSRNFFVVSVALFPLHLLLLMVDVLLVIGVLCMDGYCFRCFSRCVRKAPEEVSLLTIPQSRVSRRFLLDICDFYSAPPVDIIRLATGLNGCFRGDYSPIGSSTSVITADKIDVKKVSCRTVCSFPSCPSEAVKVLHVLSVRGQMCAHNEQKVEKVDALPCKNPLFPYDLSSKKIVPVDSGTYEILSSIGCDMSHLVIGDGDFFKVMGVPRPSPFTVMRLRACRVVGG
Take B1: the binding result is “binds”.

These data come from PMC12282152.
